Results are given in words; binding and its absence hold for the method and conditions named. For some of these results: In cells and extracts the contact can be indirect. Some binding calls cover weakened binding; strength is not graded here. For some of these results: Where a sequence is shown, tags or fusion partners need not be part of it.
T1: FKBP4 (human (endogenous in HCT116)) (UniProt Q02790)
T1 sequence: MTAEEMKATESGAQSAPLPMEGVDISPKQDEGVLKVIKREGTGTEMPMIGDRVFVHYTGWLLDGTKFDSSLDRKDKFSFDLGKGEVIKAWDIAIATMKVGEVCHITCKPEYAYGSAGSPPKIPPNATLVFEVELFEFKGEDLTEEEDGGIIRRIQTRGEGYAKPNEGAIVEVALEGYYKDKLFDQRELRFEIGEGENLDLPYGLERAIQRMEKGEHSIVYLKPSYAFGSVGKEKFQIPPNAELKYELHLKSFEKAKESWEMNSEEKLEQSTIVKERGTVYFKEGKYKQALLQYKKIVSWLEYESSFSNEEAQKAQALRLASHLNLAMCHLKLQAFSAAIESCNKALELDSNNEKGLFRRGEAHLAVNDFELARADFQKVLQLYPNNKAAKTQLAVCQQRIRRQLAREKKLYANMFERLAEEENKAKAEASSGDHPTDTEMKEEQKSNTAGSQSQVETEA

T2: recombinant GST-tagged FKBP4 (UniProt Q02790)
T2 sequence: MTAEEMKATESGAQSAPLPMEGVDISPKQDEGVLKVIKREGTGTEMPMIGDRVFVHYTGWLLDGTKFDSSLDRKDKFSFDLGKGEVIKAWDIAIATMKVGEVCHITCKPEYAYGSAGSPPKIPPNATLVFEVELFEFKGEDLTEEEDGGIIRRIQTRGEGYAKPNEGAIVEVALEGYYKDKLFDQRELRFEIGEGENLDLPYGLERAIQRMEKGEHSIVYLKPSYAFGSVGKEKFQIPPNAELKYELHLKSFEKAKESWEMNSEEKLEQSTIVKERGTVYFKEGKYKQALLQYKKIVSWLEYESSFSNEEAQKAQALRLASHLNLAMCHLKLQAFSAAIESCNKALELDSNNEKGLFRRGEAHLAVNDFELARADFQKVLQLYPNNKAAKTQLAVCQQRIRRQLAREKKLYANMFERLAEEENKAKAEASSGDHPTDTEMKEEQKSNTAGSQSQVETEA


What was measured:
[1] = target: T1, FKBP4 (human (endogenous in HCT116)); experiment: co-IP; immunoprecipitation of endogenous FKBP4 with anti-FKBP4 antibody from lysate of mitochondria of HCT116 cells; co-IP buffer 50 mM Tris pH 7.4, 150 mM NaCl, 2 mM EDTA, 1% NP-40; overnight 4°C; Protein-A/G-Sepharose
[2] = target: T2, recombinant GST-tagged FKBP4; experiment: pull-down; GST pull-down with recombinant GST-tagged FKBP4 and 6xHis-tagged COA6; both purified

Row | binding [1] | binding [2] | Binder
1 | binds | – | SCO2 (protein, UniProt O43819 42-266) GPAETGGQGQPQGPGLRTRLLITGLFGAGLGGAWLALRAEKERLQQQKRTEALRQAAVGQGDFHLLDHRGRARCKADFRGQWVLMYFGFTHCPDICPDELEKLVQVVRQLEAEPGLPPVQPVFITVDPERDDVEAMARYVQDFHPRLLGLTGSTKQVAQASHSYRVYYNAGPKDEDQDYIVDHSIAIYLLNPDGLFTDYYGRSRSAEQISDSVRRHMAAFRSVLS
2 | binds | – | SCO1 (protein, UniProt O75880 68-301) STARPPPPWSQKGPGDSTRPSKPGPVSWKSLAITFAIGGALLAGMKHVKKEKAEKLEKERQRHIGKPLLGGPFSLTTHTGERKTDKDYLGQWLLIYFGFTHCPDVCPEELEKMIQVVDEIDSITTLPDLTPLFISIDPERDTKEAIANYVKEFSPKLVGLTGTREEVDQVARAYRVYYSPGPKDEDEDYIVDHTIIMYLIGPDGEFLDYFGQNKRKGEIAASIATHMRPYRKKS
3 | binds | – | COA6 (protein, UniProt Q5JTJ3 1-125) MGPGGPLLSPSRGFLLCKTGWHSNRLLGDCGPHTPVSTALSFIAVGMAAPSMKERQVCWGARDEYWKCLDENLEDASQCKKLRSSFESSCPQQWIKYFDKRRDYLKFKEKFEAGQFEPSETTAKS
4 | – | binds | recombinant 6xHis-tagged COA6 (protein, UniProt Q5JTJ3 1-125) MGPGGPLLSPSRGFLLCKTGWHSNRLLGDCGPHTPVSTALSFIAVGMAAPSMKERQVCWGARDEYWKCLDENLEDASQCKKLRSSFESSCPQQWIKYFDKRRDYLKFKEKFEAGQFEPSETTAKS

From paper PMC9389594
